Primary screen of a compound library

Data taken from ChEMBL document CHEMBL3988442, “University of Dundee, Small-Polar-MMV Screening Library” (2021).

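Whole-parasite assay of Trypanosoma brucei over 72 hours; the read-out is not stated. Tested at 30 µM. The record gives no direction; compounds that gave an IC50 in retests scored well above the rest, so higher reads as stronger inhibition. Values scatter widely below zero; nearly all retest evidence comes from the higher of the two concentrations used. About 64,000 compounds were tested under these conditions; 1.5% (about 940) showed 50% or more at least once.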

Each number is a percent effect as filed. How 0% and 100% were set is not recorded. Most values in the screen are low, and negative values occur. The compounds are a random part of those screened.

Compound,effect
Cc1[nH]ncc1C(=O)N1CCCC(c2ccn[nH]2)C1 (stereo not given),-8.511
COCCN1CCN(CCCS(=O)(=O)c2ccccc2)CC1C (stereo not given),23.2
CCc1nc(CN2CCCN(C(=O)C3CCC3)CC2)cs1,-11.11
CC(=O)NCc1nc(CC(C)C)nn1-c1cccc(C)c1,-28.93
CCc1nnc2n1CCN(C(=O)CN(CC)CC)C2,11.7
Cc1occc1C(=O)NCC1OCCc2cn(C)nc21.O=C(O)C(F)(F)F (stereo not given),-5.656
Cc1csc(CN(C)C(C)C(=O)N2CCc3ccccc3C2)n1 (stereo not given),-50.62
Cc1cc(-c2ccncc2)ccc1OCC(N)=O,12.54
Cc1nc2ccccc2n1CCNCc1cccc(C#N)c1,-13.36
Clc1ccc(C2(NCc3noc(C4CC4)n3)CCC2)cc1,-0.7678
NC1CCCc2c1cnn2-c1cc(F)cc(F)c1 (stereo not given),-32.36
CCOc1cc(C)nc(N2CCN(C(=O)Cn3cc(C)cn3)CC2)n1,-11.24
NC(=O)c1ccc(S(=O)(=O)NC(=O)COc2ccc3c(c2)CCC3)cc1,-22.11
CN(C)c1nc2c(c(=O)[nH]1)CCN(C(=O)c1ccc(=O)[nH]c1)C2,12.46
Fc1ccc(Oc2nccnc2C2CCN(C3CCOCC3)CC2)cc1,-6.6
COc1ccccc1C1CC(=O)Nc2nc(N3CCCCC3)sc21 (stereo not given),-3.862
Cn1cnc2c1CCN(CCOc1ccc3c(c1)CCC(=O)N3)C2,-37.14
O=S(=O)(NCCc1ccccc1F)N1CCOCC1,-27.27
CCc1ccc(O)c(C(=O)N2CCN(CC(=O)N3CCCCC3)CC2)c1,-33.34
CC(C)C1CN(Cc2nccn2C(C)C)CCC(=O)N1CC1CC1 (stereo not given),-34.15
COCCNC(=O)NCC(C)c1ccccc1OC (stereo not given),-1.029
CC(C)(C)c1nnc(CN2CCN(S(C)(=O)=O)CC2)o1,-3.067
COc1c(Br)c(CC2CC(CO)=NO2)c(OC)c2c1OCO2 (stereo not given),-19.25
CN(C)c1cccc(C(=O)Nc2ccn(CCc3ccncc3)n2)c1,-82
CC(=O)NCCNC(=O)NCc1ccc(-n2ccc(C(F)(F)F)n2)cc1,-25.93
CC(NC1(CNC(=O)OC(C)(C)C)CCOCC1)c1ccccc1 (stereo not given),-19.61
O=C(O)C(F)(F)F.O=C(O)C(F)(F)F.[H][C@@]12CCN(C(=O)c3ccc(C)nc3)[C@]1([H])CCC(=O)N2CCN(C)C,-37.95
[H][C@]12CC[C@]([H])(CN(Cc3ccccn3)C1)N(Cc1snnc1C)C2,-6.269
CCn1nc2c(cc1=O)CN(CCCN1CCCC1=O)CC2,-36.88
C[C@@H](NC(=O)c1cccnc1)c1onc(-c2ccccc2)c1C(=O)O,11
CC(C)Oc1ncccc1CNC(=O)c1ccc(=O)[nH]n1,-9.493
c1ccc(CCc2n[nH]c(C3CCOC3)n2)cc1 (stereo not given),-14.86
CCS(=O)(=O)N1CCc2ccc(NC(=O)Nc3cccc(F)c3)cc21,-1.018
Cc1cc(N2Cc3cnc(CC(C)C)nc3C2)nc(N)n1,-50.36
Cc1noc(C)c1CN1CCn2cc(CNc3ccccn3)nc2C1.O=C(O)C(F)(F)F.O=C(O)C(F)(F)F,-22.33
Cc1ccc(NC(=O)c2n[nH]c(-n3cnnc3)n2)cc1C,6.81
O=C(c1ccncc1)N1CCCC(c2ncncc2-c2ccncc2)C1 (stereo not given),-10.54
COc1ccc(CN2Cc3[nH]nc(C(=O)N(C)C)c3C2)cc1,-3.166
CC(C)Cn1c2c(ccc1=O)CC(N)CC2 (stereo not given),-5.458
Cc1cccc(CNC2CC(=O)N(CCc3cccc(Cl)c3)C2)n1 (stereo not given),-11.91
COc1cc(C)c(NC(=O)CCn2cccc2)cc1OC,-2.442
O=S(=O)(NCC1(O)CCCC1)c1ccccc1Br,9.235
COc1cccc(CNc2cnn(C)c(=O)c2Cl)c1,0.2126
Cc1ccc(NS(=O)(=O)CC2=NC(=O)n3cccc3C2=O)cc1,13.93
COCCN1CCC2(CC1)CC(COC)N(c1ncccn1)C2.O=C(O)C(F)(F)F.O=C(O)C(F)(F)F (stereo not given),-6.054
Nc1nccc(C2CN(Cc3ccc(-c4ccccc4C(=O)O)o3)C2)n1,15.05
O=C(NCCc1ccc(Cl)s1)NCc1nnc2n1CCCC2,-15.68
CC(CN1CCC(c2ccccc2)CC1)n1cnc2ccccc21 (stereo not given),34.2
c1cc(NCc2ccsc2)cc(-c2nnc[nH]2)c1,-50.24
Cc1ccccc1NC(=O)N1CCN(Cc2noc(C3CC3)n2)CC1,-0.1402
O=C(O)C(F)(F)F.O=C(c1ccoc1)N1CC[C@@H](N2CCOCC2)[C@@H]1Cc1ccccc1,23.45
CCc1nccn1C1CCCN(C(=O)CCc2nc(C(C)C)no2)C1 (stereo not given),-10.21
COCCc1noc(Cn2ccc3ncccc3c2=O)n1,-9.635
CN(C)[C@@H]1CO[C@H](CNC(=O)c2cccs2)[C@H]1O,-1.811
COC(=O)c1ccc2c(-c3ccnc(N[C@@H](C)CO)n3)c[nH]c2c1,47.11
Cc1cnn(CCNCc2nnc(C3CC3)o2)c1,-0.9545
Cc1n[nH]c(=O)c2c(NC(=O)CN3CCOC(C)C3)oc(C)c12 (stereo not given),-18.3
Cc1noc(Cl)c1CCC(=O)N1CCCCC1Cn1cccn1 (stereo not given),16.22
CCOc1nnc(CN(CC)CC(=O)NC(C)C)s1,-18.09
c1cc(-c2nc3c(c(NCCc4c[nH]cn4)n2)CCNCC3)ccn1,-226
CNc1snc(C)c1C(=O)NC(C)CC(=O)c1cccs1 (stereo not given),-17.46

7 of the entries, repeated:

| Compound | effect |
|---|---|
| `Cc1csc(CN(C)C(C)C(=O)N2CCc3ccccc3C2)n1` (stereo not given) | -50.62 |
| `COc1cc(C)c(NC(=O)CCn2cccc2)cc1OC` | -2.442 |
| `CCc1ccc(O)c(C(=O)N2CCN(CC(=O)N3CCCCC3)CC2)c1` | -33.34 |
| `Cc1cc(N2Cc3cnc(CC(C)C)nc3C2)nc(N)n1` | -50.36 |
| `Nc1nccc(C2CN(Cc3ccc(-c4ccccc4C(=O)O)o3)C2)n1` | 15.05 |
| `NC1CCCc2c1cnn2-c1cc(F)cc(F)c1` (stereo not given) | -32.36 |
| `COc1cccc(CNc2cnn(C)c(=O)c2Cl)c1` | 0.2126 |